PMC6615859
Results are given in words; binding and its absence hold for the method and conditions named. In cells and extracts the contact can be indirect. Some results given as binding are weak or reduced against the parent protein; the word gives no strength.

By UniProt entry, the sequences of proteins in these tests, tags left out. Where a name states a change or a piece, a line headed by the entry shows the natural chain unless it says otherwise.
UniProt O15037: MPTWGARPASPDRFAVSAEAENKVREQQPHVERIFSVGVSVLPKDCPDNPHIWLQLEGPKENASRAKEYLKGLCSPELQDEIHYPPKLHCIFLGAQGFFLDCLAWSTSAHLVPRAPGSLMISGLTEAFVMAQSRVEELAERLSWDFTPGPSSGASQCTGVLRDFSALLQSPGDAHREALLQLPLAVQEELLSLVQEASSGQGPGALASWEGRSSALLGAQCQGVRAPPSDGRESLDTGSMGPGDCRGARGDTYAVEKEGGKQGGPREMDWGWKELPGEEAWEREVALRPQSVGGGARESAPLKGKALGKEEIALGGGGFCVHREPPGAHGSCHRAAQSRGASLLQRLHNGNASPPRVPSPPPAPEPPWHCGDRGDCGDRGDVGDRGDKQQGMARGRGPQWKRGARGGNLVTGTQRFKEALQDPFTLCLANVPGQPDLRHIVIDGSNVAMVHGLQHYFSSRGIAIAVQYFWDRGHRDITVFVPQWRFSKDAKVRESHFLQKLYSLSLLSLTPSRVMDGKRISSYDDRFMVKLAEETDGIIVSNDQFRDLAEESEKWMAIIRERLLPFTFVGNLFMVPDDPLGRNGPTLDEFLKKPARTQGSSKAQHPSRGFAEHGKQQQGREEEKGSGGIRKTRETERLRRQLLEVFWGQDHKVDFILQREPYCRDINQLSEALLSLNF
UniProt Q7Z2W4: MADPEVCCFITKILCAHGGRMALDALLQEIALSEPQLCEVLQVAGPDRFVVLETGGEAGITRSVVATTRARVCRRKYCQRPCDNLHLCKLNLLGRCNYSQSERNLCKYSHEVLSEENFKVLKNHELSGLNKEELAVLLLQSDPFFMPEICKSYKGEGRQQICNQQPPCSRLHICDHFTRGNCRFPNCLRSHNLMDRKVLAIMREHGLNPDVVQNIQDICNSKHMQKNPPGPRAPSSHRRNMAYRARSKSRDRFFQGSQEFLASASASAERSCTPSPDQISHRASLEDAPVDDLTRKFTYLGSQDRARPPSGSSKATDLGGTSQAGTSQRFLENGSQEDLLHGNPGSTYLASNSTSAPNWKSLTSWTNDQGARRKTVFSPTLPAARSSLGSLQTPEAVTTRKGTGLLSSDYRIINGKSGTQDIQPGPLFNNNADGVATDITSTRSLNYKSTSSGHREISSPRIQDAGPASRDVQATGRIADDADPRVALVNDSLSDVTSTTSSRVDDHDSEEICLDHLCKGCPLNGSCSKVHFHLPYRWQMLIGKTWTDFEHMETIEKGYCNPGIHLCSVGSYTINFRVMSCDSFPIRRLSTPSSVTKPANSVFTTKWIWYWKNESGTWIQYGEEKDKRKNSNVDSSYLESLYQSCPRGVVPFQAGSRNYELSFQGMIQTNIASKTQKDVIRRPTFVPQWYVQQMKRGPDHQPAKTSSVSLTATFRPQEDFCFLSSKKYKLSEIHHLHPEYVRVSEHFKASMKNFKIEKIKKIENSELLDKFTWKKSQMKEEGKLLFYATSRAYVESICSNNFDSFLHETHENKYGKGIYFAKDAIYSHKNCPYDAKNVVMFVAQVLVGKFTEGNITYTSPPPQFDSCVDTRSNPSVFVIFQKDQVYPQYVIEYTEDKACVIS
UniProt Q14258: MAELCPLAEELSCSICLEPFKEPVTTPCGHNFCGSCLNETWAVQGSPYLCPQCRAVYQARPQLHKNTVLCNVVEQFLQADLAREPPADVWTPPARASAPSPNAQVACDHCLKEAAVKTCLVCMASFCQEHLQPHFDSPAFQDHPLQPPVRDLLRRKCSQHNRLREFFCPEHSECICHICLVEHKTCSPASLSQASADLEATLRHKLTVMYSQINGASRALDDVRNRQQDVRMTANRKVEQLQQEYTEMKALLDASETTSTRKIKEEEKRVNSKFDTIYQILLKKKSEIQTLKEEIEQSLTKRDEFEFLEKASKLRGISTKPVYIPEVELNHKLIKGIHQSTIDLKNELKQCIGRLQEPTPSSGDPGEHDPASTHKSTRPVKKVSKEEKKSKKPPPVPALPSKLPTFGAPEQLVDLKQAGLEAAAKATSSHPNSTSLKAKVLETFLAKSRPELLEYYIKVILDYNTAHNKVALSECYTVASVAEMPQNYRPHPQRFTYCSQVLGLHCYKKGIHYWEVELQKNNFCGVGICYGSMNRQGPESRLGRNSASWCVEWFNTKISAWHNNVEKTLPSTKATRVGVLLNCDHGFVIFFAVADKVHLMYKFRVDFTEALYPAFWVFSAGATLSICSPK

Assays:
[1] = target: KHNYN-1-FLAG (human) (UniProt O15037); assay: co-IP; anti-FLAG antibody and Protein G Dynabeads on post-nuclear supernatants of HEK293T cells transfected with KHNYN-FLAG; blots for ZAP and TRIM25; lysis buffer 0.5% NP-40, 150 mM KCl, 10 mM HEPES pH 7.5, 3 mM MgCl2; 4°C; also in Control, TRIM25 CRISPR and ZAP CRISPR HEK293T cells
[2] = target: ZAP-L, endogenous in HEK293T cells (human (endogenous in HEK293T)) (UniProt Q7Z2W4); assay: co-IP; anti-ZAP antibody (Abcam) and Protein G Dynabeads on post-nuclear supernatants of HEK293T cells transfected with KHNYN-FLAG; blot for FLAG; lysis buffer 0.5% NP-40, 150 mM KCl, 10 mM HEPES pH 7.5, 3 mM MgCl2; 4°C
[3] = target: KHNYN-1-FLAG (human) (UniProt O15037); assay: co-IP; HEK293T cells transfected with pHA-ZAP-L and KHNYN-FLAG; post-nuclear supernatant treated with RNase A for 30 min at 37°C, then anti-FLAG antibody and Protein G Dynabeads; blot for ZAP

| binding [1] | Substance | also measured |
| --- | --- | --- |
| binds | TRIM25, endogenous in HEK293T cells (from UniProt Q14258 1-630) | – |
| – | KHNYN-1-FLAG (from UniProt O15037 1-678) | binding [2]: binds |
| – | HA-ZAP-L (from UniProt Q7Z2W4-1 1-902) | binding [3]: binds |
| binds | ZAP-L, endogenous in HEK293T cells (from UniProt Q7Z2W4-1 1-902) | – |
